Results are given in words; binding and its absence hold for the method and conditions named. Some binding calls cover weakened binding; strength is not graded here.
What was measured:
[1] = target: T1, PlGf-2 (human) (UniProt P49763); assay: plate ELISA, receptor-Fc or biotinylated receptor on coated growth factor
T1 sequence (looked up): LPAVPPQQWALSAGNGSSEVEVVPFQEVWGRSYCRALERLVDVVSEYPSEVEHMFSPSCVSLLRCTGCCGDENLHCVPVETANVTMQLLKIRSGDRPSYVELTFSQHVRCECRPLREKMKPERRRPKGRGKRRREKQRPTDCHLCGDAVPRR

The chains behind the UniProt entries cited, without tags or fusion partners. Where a name states a change or a piece, a line headed by the entry shows the natural chain unless it says otherwise. A line that says so, or that is headed by a name, gives the form on record, which may keep a tag or linker.
Flt-1 (P17948, form named): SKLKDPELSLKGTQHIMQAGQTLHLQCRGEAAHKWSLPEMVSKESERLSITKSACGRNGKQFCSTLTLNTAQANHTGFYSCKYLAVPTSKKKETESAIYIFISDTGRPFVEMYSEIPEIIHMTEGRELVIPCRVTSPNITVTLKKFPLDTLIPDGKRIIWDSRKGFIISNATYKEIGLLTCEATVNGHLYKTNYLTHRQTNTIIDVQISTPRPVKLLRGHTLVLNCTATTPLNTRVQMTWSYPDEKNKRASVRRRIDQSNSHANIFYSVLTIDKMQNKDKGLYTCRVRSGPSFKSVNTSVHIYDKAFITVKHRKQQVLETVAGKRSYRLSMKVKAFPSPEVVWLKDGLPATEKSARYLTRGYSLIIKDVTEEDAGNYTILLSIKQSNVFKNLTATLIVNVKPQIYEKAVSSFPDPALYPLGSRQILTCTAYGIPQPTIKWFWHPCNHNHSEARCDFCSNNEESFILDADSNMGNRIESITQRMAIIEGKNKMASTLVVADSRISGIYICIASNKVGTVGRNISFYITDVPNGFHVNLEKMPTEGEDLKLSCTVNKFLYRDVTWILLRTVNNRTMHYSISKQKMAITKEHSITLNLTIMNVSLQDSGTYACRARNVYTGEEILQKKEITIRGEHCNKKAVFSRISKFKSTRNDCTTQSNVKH

[2] = target: T2, VEGF-B (human) (UniProt P49765); assay: as above
T2 sequence (looked up): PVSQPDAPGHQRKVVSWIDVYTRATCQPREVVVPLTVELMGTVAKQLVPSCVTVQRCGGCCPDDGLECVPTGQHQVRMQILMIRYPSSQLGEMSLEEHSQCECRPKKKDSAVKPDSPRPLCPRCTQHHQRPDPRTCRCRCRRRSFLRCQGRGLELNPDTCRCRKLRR

binding [1]: binds
binding [2]: binds
Substance: Flt-1 (from UniProt P17948 27-687) (receptor)
